According to PMC7671560, “SAXS studies of X-ray induced disulfide bond damage: Engineering high-resolution insight from a low-resolution technique” (PLoS ONE, 2020):
These are yes or no findings as the source states them, for the method shown. Tags and fused reporters may be left off the sequences shown.

Target: endoHCYS (FRAGCYS-endoH-His6; Endoglycosidase-H with a 7 aa cysteine-containing fragment on its N-terminus) (UniProt P04067)
Experiment: SAXS; disulfide bonds reduced with 2 mM DTT; pH 5, 6, 7.5 and 9; 5.0, 2.5 and 1.25 mg/ml; data collected as for the dimer; both purified

binding: no binding (condition: with 2 mM DTT)
B1: endoHCYS (FRAGCYS-endoH-His6; Endoglycosidase-H with a 7 aa cysteine-containing fragment on its N-terminus) (enzyme)
chain: SLSTGCYVKQGPTSVAYVEVNNNSMLNVGKYTLADGGGNAFDVAVIFAANINYDTGTKTAYLHFNENVQRVLDNAVTQIRPLQQQGIKVLLSVLGNHQGAGFANFPSQQAASAFAKQLSDAVAKYGLDGVDFDDEYAEYGNNGTAQPNDSSFVHLVTALRANMPDKIISLYNIGPAASRLSYGGVDVSDKFDYAWNPYYGTWQVPGIALPKAQLSPAAVEIGRTSRSTVADLARRTVDEGYGVYLTYNLDGGDRTADVSAFTRELYGSEAVRTP
notes: 7 aa fragment with a single free cysteine ('FRAGCYS') attached to the flexible N-terminus of endoH; Endoglycosidase-H (endoH), P04067, aa 47-313; has no native cysteines; The chain is written once as the protomer; two protomers join through an intermolecular disulfide between the cysteines of FRAGCYS (about 75% dimer, 25% monomer in the preparation); The structure's own numbering has Val-8 as the …
